Assay results from publication PMC8913359.
These are yes or no findings as the source states them, for the method shown. Binding seen in cells or lysates may run through a third protein. Some entries that bind do so weakly or less than the wild type. For part of these data: Sequences can lack the tags named with a protein.

By UniProt entry, the sequences of proteins in these tests, tags left out.
UniProt Q96DH6: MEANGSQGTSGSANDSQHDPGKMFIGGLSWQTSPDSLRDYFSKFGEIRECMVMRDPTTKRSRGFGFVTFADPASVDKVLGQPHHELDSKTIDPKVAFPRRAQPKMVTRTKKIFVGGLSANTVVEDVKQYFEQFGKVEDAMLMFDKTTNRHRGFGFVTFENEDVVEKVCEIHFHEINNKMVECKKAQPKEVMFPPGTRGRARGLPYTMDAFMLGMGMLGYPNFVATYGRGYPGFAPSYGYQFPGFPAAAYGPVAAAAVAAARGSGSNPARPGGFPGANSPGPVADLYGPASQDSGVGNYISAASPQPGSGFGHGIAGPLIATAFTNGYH

Assays:
[1] = biological target: T1, FLAG-tagged LIN28A (human) (UniProt Q9H9Z2); experiment: co-IP; exogenous tagged proteins (full-length and truncated constructs) transfected into 293T cells; Western blot
T1 sequence: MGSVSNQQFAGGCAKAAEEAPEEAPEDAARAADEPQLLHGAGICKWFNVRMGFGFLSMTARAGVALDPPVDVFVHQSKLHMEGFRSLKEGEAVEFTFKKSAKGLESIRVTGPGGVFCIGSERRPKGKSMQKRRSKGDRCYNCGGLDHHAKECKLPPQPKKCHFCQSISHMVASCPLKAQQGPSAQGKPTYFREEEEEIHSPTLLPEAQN

Flag-LIN28A (human) [2] = biological target: T2, Flag-LIN28A (human) (UniProt Q9H9Z2); experiment: co-IP; Flag-IP from lysates of CAL51 cells stably expressing the Flag-tagged protein; anti-FLAG M2 magnetic beads overnight at 4 °C; 50 mM Tris-HCl pH 7.5, 100 mM NaCl, 1% Triton X-100, 0.1 mM EDTA, 0.5 mM MgCl2, 10% glycerol; four washes; Western blot
T2 sequence: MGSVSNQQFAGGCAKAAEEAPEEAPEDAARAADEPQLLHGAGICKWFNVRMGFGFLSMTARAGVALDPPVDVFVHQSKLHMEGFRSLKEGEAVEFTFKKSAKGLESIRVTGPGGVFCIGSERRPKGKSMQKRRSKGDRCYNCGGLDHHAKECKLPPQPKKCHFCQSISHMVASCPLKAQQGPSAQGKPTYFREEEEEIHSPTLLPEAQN

Flag-LIN28B (human) = biological target: T3, Flag-LIN28B (human) (UniProt Q6ZN17); experiment: as above
T3 sequence: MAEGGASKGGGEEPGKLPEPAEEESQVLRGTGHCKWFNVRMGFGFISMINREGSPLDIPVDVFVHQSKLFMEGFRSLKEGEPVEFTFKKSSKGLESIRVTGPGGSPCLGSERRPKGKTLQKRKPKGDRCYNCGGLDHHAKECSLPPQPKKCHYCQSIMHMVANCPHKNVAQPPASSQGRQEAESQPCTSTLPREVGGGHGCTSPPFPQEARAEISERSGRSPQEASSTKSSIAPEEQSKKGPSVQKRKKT

Flag-LIN28A (human) [3] = biological target: T2, Flag-LIN28A (human); experiment: co-IP; MCF-10A cells; no panel is named for these cells
[4] = biological target: T4, LIN28A (endogenous) (human (endogenous in CAL51)) (UniProt Q9H9Z2); experiment: co-IP; endogenous proteins in CAL51 cells; Western blot
T4 sequence: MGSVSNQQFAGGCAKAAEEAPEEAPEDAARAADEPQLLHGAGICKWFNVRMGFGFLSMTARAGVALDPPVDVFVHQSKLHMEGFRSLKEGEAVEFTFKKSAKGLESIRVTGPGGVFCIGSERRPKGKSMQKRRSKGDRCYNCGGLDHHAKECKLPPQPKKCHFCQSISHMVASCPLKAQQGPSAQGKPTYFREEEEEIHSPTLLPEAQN

Flag-MSI2 (human) = Flag-MSI2 (human) (UniProt Q96DH6); experiment: co-IP; Flag-IP from lysates of CAL51 cells stably expressing the Flag-tagged protein; anti-FLAG M2 magnetic beads overnight at 4 °C; 50 mM Tris-HCl pH 7.5, 100 mM NaCl, 1% Triton X-100, 0.1 mM EDTA, 0.5 mM MgCl2, 10% glycerol; four washes; Western blot

## MYC-tagged MSI2 (from UniProt Q96DH6 1-328)
[1]
  binding: binds

## MSI2 (endogenous) (from UniProt Q96DH6 1-328)
Flag-LIN28A (human) [2]
  binding: binds
Flag-LIN28B (human)
  binding: binds
Flag-LIN28A (human) [3]
  binding: binds
[4]
  binding: binds

B1: LIN28A (endogenous) (protein, UniProt Q9H9Z2 1-209)
chain: MGSVSNQQFAGGCAKAAEEAPEEAPEDAARAADEPQLLHGAGICKWFNVRMGFGFLSMTARAGVALDPPVDVFVHQSKLHMEGFRSLKEGEAVEFTFKKSAKGLESIRVTGPGGVFCIGSERRPKGKSMQKRRSKGDRCYNCGGLDHHAKECKLPPQPKKCHFCQSISHMVASCPLKAQQGPSAQGKPTYFREEEEEIHSPTLLPEAQN
Flag-MSI2 (human)
  binding: binds
